Data as given in paper doi:10.1101/2022.09.26.509472.
Substitutions are numbered along the chain they refer to. No constants are given. Whether binding was seen depends on the method and setting. Binding seen in cells or lysates may run through a third protein. Some binding calls cover weakened binding; strength is not graded here. Where a sequence is shown, tags or fusion partners need not be part of it.

Chains of the proteins cited; added tags and fusions are not shown. Lines headed by an entry give the natural chain unless they say otherwise; changes in a name come on top.
UniProt Q5S007: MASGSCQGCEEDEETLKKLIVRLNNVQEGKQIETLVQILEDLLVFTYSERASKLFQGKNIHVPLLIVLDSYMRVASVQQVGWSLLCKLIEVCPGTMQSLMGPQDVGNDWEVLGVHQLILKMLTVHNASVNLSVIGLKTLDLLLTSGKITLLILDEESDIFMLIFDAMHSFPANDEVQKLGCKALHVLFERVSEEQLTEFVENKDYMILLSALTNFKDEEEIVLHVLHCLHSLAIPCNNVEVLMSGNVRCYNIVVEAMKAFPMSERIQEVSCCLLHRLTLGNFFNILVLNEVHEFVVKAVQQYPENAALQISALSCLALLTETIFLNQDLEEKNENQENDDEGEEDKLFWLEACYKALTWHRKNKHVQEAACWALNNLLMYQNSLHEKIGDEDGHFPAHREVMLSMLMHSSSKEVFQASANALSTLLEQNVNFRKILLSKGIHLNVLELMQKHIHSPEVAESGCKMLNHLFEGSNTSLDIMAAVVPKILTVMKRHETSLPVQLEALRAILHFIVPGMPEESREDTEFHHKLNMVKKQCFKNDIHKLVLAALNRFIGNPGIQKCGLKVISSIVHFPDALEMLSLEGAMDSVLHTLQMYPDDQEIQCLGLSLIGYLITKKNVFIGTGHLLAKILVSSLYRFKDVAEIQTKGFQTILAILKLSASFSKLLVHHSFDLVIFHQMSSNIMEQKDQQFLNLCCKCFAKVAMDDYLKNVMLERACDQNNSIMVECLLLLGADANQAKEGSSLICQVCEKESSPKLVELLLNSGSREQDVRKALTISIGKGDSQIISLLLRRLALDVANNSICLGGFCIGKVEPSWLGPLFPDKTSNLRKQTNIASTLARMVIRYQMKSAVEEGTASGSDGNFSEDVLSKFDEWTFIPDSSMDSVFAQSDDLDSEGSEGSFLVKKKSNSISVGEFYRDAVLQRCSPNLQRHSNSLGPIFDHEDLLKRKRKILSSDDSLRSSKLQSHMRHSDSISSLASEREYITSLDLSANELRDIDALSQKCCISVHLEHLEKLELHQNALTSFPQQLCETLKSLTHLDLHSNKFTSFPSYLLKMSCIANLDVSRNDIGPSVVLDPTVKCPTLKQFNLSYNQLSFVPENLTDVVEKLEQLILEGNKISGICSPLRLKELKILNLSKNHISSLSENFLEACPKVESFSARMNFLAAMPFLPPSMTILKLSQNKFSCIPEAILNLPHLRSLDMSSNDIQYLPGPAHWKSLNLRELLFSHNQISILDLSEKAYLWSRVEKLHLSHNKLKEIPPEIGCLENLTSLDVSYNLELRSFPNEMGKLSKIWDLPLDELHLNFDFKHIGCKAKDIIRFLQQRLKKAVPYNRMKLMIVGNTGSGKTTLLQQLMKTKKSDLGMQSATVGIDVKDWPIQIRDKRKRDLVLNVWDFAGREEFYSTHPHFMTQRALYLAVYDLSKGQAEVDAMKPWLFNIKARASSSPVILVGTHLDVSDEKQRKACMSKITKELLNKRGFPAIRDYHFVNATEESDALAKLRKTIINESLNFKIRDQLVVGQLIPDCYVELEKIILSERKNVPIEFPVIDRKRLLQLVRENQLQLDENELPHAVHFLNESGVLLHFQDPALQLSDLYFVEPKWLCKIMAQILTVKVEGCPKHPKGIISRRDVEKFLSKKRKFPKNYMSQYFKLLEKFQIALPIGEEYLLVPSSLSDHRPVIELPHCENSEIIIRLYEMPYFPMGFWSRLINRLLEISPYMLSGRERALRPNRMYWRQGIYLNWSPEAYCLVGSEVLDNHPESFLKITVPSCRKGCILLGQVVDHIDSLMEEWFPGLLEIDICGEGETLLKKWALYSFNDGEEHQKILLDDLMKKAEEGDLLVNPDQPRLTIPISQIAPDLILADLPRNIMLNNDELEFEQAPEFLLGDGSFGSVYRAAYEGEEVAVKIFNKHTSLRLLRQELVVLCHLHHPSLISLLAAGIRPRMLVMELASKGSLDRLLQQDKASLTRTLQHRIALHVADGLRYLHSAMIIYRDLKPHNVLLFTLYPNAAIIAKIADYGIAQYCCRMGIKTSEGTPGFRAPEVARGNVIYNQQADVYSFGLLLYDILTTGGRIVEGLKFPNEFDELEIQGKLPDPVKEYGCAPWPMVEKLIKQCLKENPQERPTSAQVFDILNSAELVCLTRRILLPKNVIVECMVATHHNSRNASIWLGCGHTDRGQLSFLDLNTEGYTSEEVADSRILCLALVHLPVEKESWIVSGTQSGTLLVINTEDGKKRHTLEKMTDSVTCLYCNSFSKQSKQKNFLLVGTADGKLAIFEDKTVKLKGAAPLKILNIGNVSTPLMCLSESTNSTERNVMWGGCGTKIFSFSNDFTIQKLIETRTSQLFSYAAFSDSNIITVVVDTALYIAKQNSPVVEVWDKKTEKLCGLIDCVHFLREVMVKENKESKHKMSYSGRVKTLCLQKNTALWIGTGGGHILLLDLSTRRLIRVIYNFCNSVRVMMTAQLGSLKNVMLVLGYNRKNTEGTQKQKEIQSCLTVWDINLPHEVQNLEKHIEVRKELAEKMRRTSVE

What was measured:
Test in all cases: co-IP
[1] = biological target: T1, GFP-Rab29 wild-type (human Rab29) (human) (UniProt O14966)
T1 sequence: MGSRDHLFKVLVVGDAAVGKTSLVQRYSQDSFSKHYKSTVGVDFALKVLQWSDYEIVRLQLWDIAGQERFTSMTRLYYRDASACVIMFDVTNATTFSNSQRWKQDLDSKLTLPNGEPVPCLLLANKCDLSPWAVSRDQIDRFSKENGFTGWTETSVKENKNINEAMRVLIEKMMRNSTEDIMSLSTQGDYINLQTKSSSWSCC

[2] = biological target: T2, GFP-Rab29 S185E (human) (UniProt O14966)
T2 sequence: T1 sequence with S185E

[3] = biological target: T3, GFP-Rab29 S185A (human) (UniProt O14966)
T3 sequence: T1 sequence with S185A

[4] = biological target: T4, GFP-Rab29 S185D (human) (UniProt O14966)
T4 sequence: T1 sequence with S185D

binding [1]: binds | binding [2]: binds | binding [3]: binds | binding [4]: binds
Substance: G2019S LRRK2 (leucine-rich repeat kinase 2, G2019S mutant) (from UniProt Q5S007 1-2527) (enzyme)
